Results are given in words; binding and its absence hold for the method and conditions named. In cells and extracts the contact can be indirect. Binding calls can cover weak binding; strength is not graded here. Sequences can lack the tags named with a protein.
Target: N-terminally Flag-tagged fly DPP10 (Drosophila melanogaster) (UniProt Q7JUL3)
Assay: co-IP; HEK293 cells co-transfected with Flag-tagged DPP cDNA (8 ug) and Myc-Kv4.3 cDNA (2 ug); extract in 20 mM Tris-HCl pH 7.4, 0.2 M NaCl, 1% Triton X-100, 1 mM EDTA; precipitation with anti-Flag antibody-conjugated resin, immunoblot

binding: binds
B1: Myc-tagged rat Kv4.3 (protein, UniProt Q62897 1-655)
chain: MAAGVAAWLPFARAAAIGWMPVANCPMPLAPADKNKRQDELIVLNVSGRRFQTWRTTLERYPDTLLGSTEKEFFFNEDTKEYFFDRDPEVFRCVLNFYRTGKLHYPRYECISAYDDELAFYGILPEIIGDCCYEEYKDRKRENAERLMDDNESENNQESMPSLSFRQTMWRAFENPHTSTLALVFYYVTGFFIAVSVITNVVETVPCGTVPGSKELPCGERYSVAFFCLDTACVMIFTVEYLLRLFAAPSRYRFIRSVMSIIDVVAIMPYYIGLVMTNNEDVSGAFVTLRVFRVFRIFKFSRHSQGLRILGYTLKSCASELGFLLFSLTMAIIIFATVMFYAEKGSSASKFTSIPASFWYTIVTMTTLGYGDMVPKTIAGKIFGSICSLSGVLVIALPVPVIVSNFSRIYHQNQRADKRRAQKKARLARIRVAKTGSSNAYLHSKRNGLLNEALELTGTPEEEHMGKTTSLIESQHHHLLHCLEKTTGLSYLVDDPLLSVRTSTIKNHEFIDEQMFEQNCMESSMQNYPSTRSPSLSSHSGLTTTCCSRRSKKTTHLPNSNLPATRLRSMQELSTIHIQGSEQPSLTTSRSSLNLKADDGLRPNCKTSQITTAIISIPTPPALTPEGESRPPPASPGPNTNIPSITSNVVKVSVL

Reference: PMC4873792
